Experimental data reported in paper PMC4682037, “Signal transduction in light–oxygen–voltage receptors lacking the adduct-forming cysteine residue” (Nature Communications, 2015).
Results are given in words; binding and its absence hold for the method and conditions named.

Key:
[1] = target: VVD-III:Y40E (Neurospora) (UniProt Q9C3Y6); assay: SEC; analytical SEC, Superdex 75 or 200 10/300 GL; dark-adapted (oxidized quinone) sample, foil-covered column; both purified
[2] = target: VVD-III:Y40E (Neurospora) (UniProt Q9C3Y6); assay: SEC; analytical SEC, Superdex 75 or 200 10/300 GL; light-adapted (NSQ) sample obtained by irradiation on ice, uncovered column with constant external illumination; both purified
[3] = target: VVD-III:Q182L (Neurospora) (UniProt Q9C3Y6); assay: SEC; analytical SEC, Superdex 75 or 200 10/300 GL; dark-adapted (oxidized quinone) sample, foil-covered column; both purified
[4] = target: VVD-III:Q182L (Neurospora) (UniProt Q9C3Y6); assay: SEC; analytical SEC, Superdex 75 or 200 10/300 GL; light-adapted (NSQ) sample obtained by irradiation on ice, uncovered column with constant external illumination; both purified
[5] = target: VVD-III (VVD Δ36, C108A:M135I:M165I) (Neurospora) (UniProt Q9C3Y6); assay: SEC; VVD-III as purified from E. coli passed through a SEC column; flavin redox states separate; yellow-coloured, oxidized protein; both purified
[6] = target: VVD-III (VVD Δ36, C108A:M135I:M165I) (Neurospora) (UniProt Q9C3Y6); assay: condition: only dark-adapted, oxidized quinone state; SEC; analytical SEC, Superdex 75 or 200 10/300 GL; dark-adapted (oxidized quinone) sample, foil-covered column; both purified

Q: For “VVD-III:Y40E (from UniProt Q9C3Y6 37-186) (domain or fragment)”, which binding [1] is on record?
A: no binding

Q: What about the binding [2] of the same molecule?
A: no binding

Q: What does the source list for “VVD-III:Q182L (from UniProt Q9C3Y6 37-186) (domain or fragment)”?
A: binding [3]: no binding; binding [4]: no binding

B1: VVD-III (VVD Δ36, C108A:M135I:M165I) (domain or fragment, Neurospora, UniProt Q9C3Y6 37-186, looked up)
chain: HTLYAPGGYDIMGYLIQIMNRPNPQVELGPVDTSCALILCDLKQKDTPIVYASEAFLYMTGYSNAEVLGRNARFLQSPDGMVKPKSTRKYVDSNTINTIRKAIDRNAEVQVEVVNFKKNGQRFVNFLTIIPVRDETGEYRYSMGFQCETE
notes: Vivid (VVD), LOV photoreceptor of Neurospora; lacks the first 36 N-terminal residues; C108A, M135I, M165I; Dark-adapted: oxidized quinone; light-adapted: neutral semiquinone (NSQ); also called Vivid; source: E. coli BL21(DE3), purified (Ni:NTA, SEC)
Q: Which results are given for B1?
A: binding [5]: no binding (condition: oxidized flavin (quinone) state); binding [6]: no binding
